Molecules are shown by their SMILES. The list shows a part of the results. The main result of the screen is listed elsewhere. These columns were measured beside it and carry no call. Compounds called inactive in the main read-out are mostly missing here. Potencies come from curve fits of mixed quality, noted in brackets.

This assay can be described thus: Cell signaling CRE-BLA (Fsk stim). As to conditions: CHO CRE-bla reporter (cAMP response element driving beta-lactamase), forskolin EC10, beta-lactamase ratio; measured here: 460 nm blue channel. Summed up:
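Beta-lactamase reporter under a cAMP responsive element in CHO cells; compounds tested in titration series against EC10 NKH 477, 3 h at 37 °C. Read-out: CCF4 FRET ratio 460nm/530nm (excitation 405nm) giving %Activity, fitted to AC50.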
As usually defined, the AC50 is the concentration giving half of the maximal activity seen. As for `COCCCNC(=O)c1ccc(N2CCCC2)c(NS(=O)(=O)c2ccc(C)cc2)c1`, the AC50 is 25.1 µM [rising, single point].
With `CCCCn1nc(C(=O)N2CCc3ccccc32)c2ccccc2c1=O`, the AC50 is 12.6 µM [rising, partial curve].
For `CN1CCc2c(sc3c2c(NCc2ccco2)nc2nnnn23)C1` the value was 25.1 µM [rising, single point]; for `COc1ccccc1CCn1c(=O)c(CCc2ccccc2)nc2cncnc21`, 10 µM [rising, partial curve].
Take `COc1ccc(-c2nc(CSCC(=O)NCc3ccco3)c(C)o2)cc1`: the AC50 was 0.01 µM [falling, full curve, poor fit].
`Cc1cc(C)n(-c2nc3ccccc3nc2Nc2ccc3c(c2)OCO3)n1`: the half-maximal activity concentration (AC50) was 3.16 µM [rising, partial curve].
Turning to `N#Cc1nc(-c2ccco2)oc1NCc1cccnc1`, the AC50 is 25.1 µM [rising, single point].
Take `COc1ccc2cc(CN(C(=O)Nc3ccccc3)C3CCCC3)c(=O)[nH]c2c1`: the AC50 was 25.1 µM [rising, single point].
Then `Cc1ccccc1-c1cc(N2CCN(C)CC2)ncn1`, with 5.01 µM [rising, single point]; and `O=C(Cn1cnc2c(cnn2-c2ccc(F)cc2)c1=O)NCc1ccco1`, with 3.16 µM [rising, partial curve]; and `CCCCNC(=O)COC(=O)c1cc2c(C)nn(-c3ccccc3)c2s1`, with 2 µM [rising, single point].
Regarding `CCCOc1ccccc1C1CC(=O)Nc2cc3c(cc21)OCCO3` (stereo unspecified), the AC50 is 5.01 µM [rising, partial curve].
For `COc1cccc(Cn2c(=O)c(-c3ccccc3)nc3cnc(N4CCNCC4)nc32)c1`, the AC50 was 6.31 µM [rising, partial curve].
Regarding `O=C(Nc1cccnc1)c1cnn2cccnc12`, the AC50 is 10 µM [rising, single point].
As for `Cn1ccnc1Sc1nc2ccccc2nc1NS(=O)(=O)c1ccccc1`, the AC50 was 3.16 µM [falling, single point].
Take `CCCNC(=O)c1c(N)n(-c2cccc(OC)c2)c2nc3ccccc3nc12`: the AC50 is 12.6 µM [rising, partial curve].
Regarding `CCC(=O)NC(=Nc1nc2ccccc2s1)NC(=O)CC`, the AC50 was 25.1 µM [rising, single point].
On to `Cc1cc(O)c(C(C)(C)C)cc1Sc1cc(C(C)(C)C)c(O)cc1C`, for which the AC50 was 7.94 µM [falling, full curve].
`CCOc1cc2c(C#N)c(N3CCOCC3)nc(N)c2c(N)n1`: the AC50 is 2.51 µM [rising, full curve].
On to `Cn1c(=O)cc(-c2ccccc2)c2ccccc21`, for which the concentration at half-maximal activity (AC50) was 15.8 µM [rising, single point].
Regarding `CCC(=O)c1ccccc1OCCN1C(=O)NC(C)(C)C1=O`, the AC50 is 20 µM [rising, single point].
Take `C[C@@]1(C(NC(=O)Cc2ccc(C(F)(F)F)cc2)c2ccc(-c3ccccc3)cc2)C[C@H]1C1CCCCC1` (stereo partly specified): the half-maximal activity concentration (AC50) is 7.94 µM [rising, partial curve, poor fit].
As for `COC(=O)[C@@]1(Cc2ccc(F)cc2)[C@H]2c3cc(C(=O)N(C)C)n(Cc4ccc(O)c(OC)c4)c3C[C@H]2CN1C(=O)c1ccccc1`, the concentration at half-maximal activity (AC50) is 0.158 µM [rising, full curve].
On to `CN(C)c1ncc2nc(-c3ccc(F)cc3)c(=O)n(C[C@H]3CCCO3)c2n1`, for which the AC50 is 2.51 µM [rising, partial curve].
As for `Cc1ccc(-c2cc3nc(C)cc(NCc4ccco4)n3n2)cc1`, the AC50 is 12.6 µM [rising, partial curve].
With `CCCc1nc(SCC(=O)Nc2cc(C)on2)c2c(=O)n(C)c(=O)n(C)c2n1`, the AC50 was 3.16 µM [rising, full curve].
As to `Cc1sc2nc(-c3cccs3)nc(N3CCCN(C)CC3)c2c1C`, the AC50 is 10 µM [rising, single point].
Then `O=S(=O)(NCc1ccccc1)c1cnc[nH]1`, with 0.158 µM [falling, full curve, poor fit]; and `O=C(CCCNS(=O)(=O)c1cccc2nsnc12)NC1CCCCC1`, with 0.1 µM [falling, full curve]; and `CC1(c2cccs2)CC(c2cccs2)=C(C#N)C(=O)N1` (stereo unspecified), with 0.00316 µM [rising, full curve, poor fit].
On to `CC(C)C[C@@H](CC(=O)N[C@@H](CCCN)CC(=O)N[C@@H]1CCCC[C@H]1C(=O)N[C@H](CC(=O)N[C@@H](CCC(=O)O)CC(=O)O)CC(C)C)NC(=O)[C@@H]1CCCC[C@H]1N`, for which the AC50 is 7.94 µM [falling, full curve, poor fit].
For `COc1ccc(S(=O)(=O)C(C#N)c2nc3ccccc3nc2N2CCCCC2)cc1` (stereo unspecified) the value was 10 µM [rising, partial curve]; for `Cc1cn(C2OC(COC(=O)c3ccccc3)C(O)C2O)c(=O)[nH]c1=O` (stereo unspecified), 0.251 µM [falling, full curve, poor fit]; for `COCCCNC(CC(=O)Nc1ccc(OC)cc1OC)C(=O)O` (stereo unspecified), 6.31 µM [falling, partial curve].
Consider `Cc1cccc(OCCSc2nnc(-c3ccoc3C)n2C)c1`, for which the AC50 is 10 µM [rising, partial curve].
For `CCCCN(c1ccccc1)c1ncnc2c1cnn2C`, the AC50 is 2.51 µM [rising, partial curve, poor fit].
`CCOC(=O)c1c(C)c2c(n1C)CCC/C2=N\O`: the AC50 is 10 µM [rising, partial curve].
For `COc1cc2[nH]c(=S)n(C3CCCC3)c(=O)c2cc1OC`, the AC50 was 12.6 µM [rising, single point].
Turning to `Cc1ccc2c(COn3nnc4ccc(S(=O)(=O)N(C)C)cc43)cc(=O)oc2c1C`, the AC50 was 0.0631 µM [falling, partial curve].
For `COc1ccc(Cn2c3nc4ccccc4nc3c3c(=O)n(Cc4ccco4)c(C)nc32)cc1`, the AC50 is 12.6 µM [rising, partial curve].
Regarding `Cc1ccc(NC(=O)N(CCCN2CCOCC2)Cc2cc3cc4c(cc3[nH]c2=O)OCO4)cc1`, the AC50 is 12.6 µM [rising, partial curve].
For the compound `Cc1cc(C)c2c(c1)OC(O)(C(F)F)CC2=O` (stereo unspecified), the AC50 was 3.98 µM [falling, partial curve].
As for `CCC(=O)c1ccc(N2CCN(C(=O)c3ccc(Br)cc3)CC2)c(F)c1`, the AC50 is 2 µM [rising, single point].
In the case of `OC(COc1cccc(OCC(O)CN2CCCC2)c1)CN1CCCC1` (stereo unspecified), the AC50 is 0.00316 µM [falling, full curve, poor fit].
For `CC1CC2(CC(C)(C(=O)CSc3n[nH]c(-c4ccccc4Cl)n3)OC2=O)C(=O)O1` (stereo unspecified) the value was 0.00398 µM [falling, full curve, poor fit]; for `CCN1C(=O)C2(C(C#N)=C(N)Oc3n[nH]c(C(C)C)c32)c2ccccc21` (stereo unspecified), 12.6 µM [falling, single point]; for `COc1ccc(-c2cn3c(n2)CCC3)cc1`, 5.01 µM [falling, single point].
With `CN1CCN(c2ncc3nc(-c4cn(C)c5ccccc45)c(=O)n(Cc4cccs4)c3n2)CC1`, the AC50 is 2.51 µM [rising, partial curve].
Then `Cc1cc(OCC(=O)N2CCCC2)ccc1Cl`, with 0.631 µM [rising, single point]; and `CC(C)(Oc1cccc2ccccc12)C(=O)O`, with 0.00794 µM [rising, full curve, poor fit]; and `Cc1cc2nc(-c3cccc(NC(=O)c4ccc(Br)o4)c3C)oc2cc1C`, with 1 µM [falling, partial curve].
For the compound `CCCCOCCCNS(=O)(=O)c1ccccc1`, the AC50 is 5.01 µM [falling, partial curve, poor fit].
Take `COc1ccc2[nH]c3nc(SCc4nnc(-c5ccccc5)o4)nnc3c2c1`: the AC50 is 2 µM [rising, partial curve].
In the case of `O=C(CC1SC(=O)N(c2ccccc2)C1=O)Nc1ccccc1` (stereo unspecified), the concentration at half-maximal activity (AC50) is 5.01 µM [falling, partial curve].
Turning to `COc1ccccc1N1CCN(C(=O)c2cc(-c3ccc(Cl)cc3)on2)CC1`, the AC50 was 25.1 µM [rising, single point].
As for `CCOc1ccc(N(CC(=O)N2CC=C(c3ccccc3)CC2)S(=O)(=O)c2c(C)noc2C)cc1`, the AC50 was 10 µM [falling, partial curve].
As for `O=C(Oc1ccccc1)N1CCN(c2ccc(F)cc2)CC1`, the AC50 was 0.398 µM [rising, full curve, poor fit].
Take `CCOc1ccc2nc(NCCNS(=O)(=O)c3ccccc3)c(C#N)cc2c1`: the AC50 was 10 µM [rising, partial curve].
Take `Cc1c(C(=O)O)oc2ccc(S(=O)(=O)N3CCC(C)CC3)cc12`: the AC50 was 0.631 µM [falling, single point].
Consider `CN1CCc2cccc3c2[C@@H]1Cc1ccc(O)c(O)c1-3`, for which the AC50 is 25.1 µM [falling, single point].
For `Cc1nc(-c2cnn(-c3ccccc3)c2)c2cc(C)oc2n1`, the AC50 was 3.98 µM [rising, partial curve].
Consider `CCOC(=O)N1CCN(C(=O)c2cn(C)c3ccc(S(=O)(=O)N4CCCC4)cc3c2=O)CC1`, for which the AC50 is 0.0631 µM [falling, full curve].
Regarding `CC(=O)Nc1cccc(NC(=O)CSc2nnnn2C(C)C)c1`, the AC50 was 3.16 µM [falling, partial curve, poor fit].
For the compound `CC(=O)c1c(C)[nH]c(C(=O)CSc2nc3ccccc3c(=O)n2CCCN2CCOCC2)c1C`, the AC50 was 0.00398 µM [falling, full curve, poor fit].
Then `COc1ccc(C2CC(C(F)(F)F)n3nc(C(N)=O)c(Cl)c3N2)cc1OC` (stereo unspecified), with 12.6 µM [rising, single point]; and `N#Cc1c(N)c(C#N)c(-c2ccc(O)cc2)c2c1CCCC2`, with 12.6 µM [falling, single point].
